From patent US20010018211A1
No constants are given. Whether binding was seen depends on the method and setting. Binding seen in cells or lysates may run through a third protein. Some results given as binding are weak or reduced against the parent protein; the word gives no strength.

By UniProt entry, the sequences of proteins in these tests, tags left out.
UniProt Q12983: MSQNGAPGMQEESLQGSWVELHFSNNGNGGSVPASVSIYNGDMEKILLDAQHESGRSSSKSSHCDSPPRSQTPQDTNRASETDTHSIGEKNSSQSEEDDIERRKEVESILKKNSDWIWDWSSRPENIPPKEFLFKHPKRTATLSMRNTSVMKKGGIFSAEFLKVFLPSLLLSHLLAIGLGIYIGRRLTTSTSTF

Key:
Assay in all cases: yeast two-hybrid or co-immunoprecipitation (data not shown)
[1] = target: c-Raf-1 (UniProt P04049)
[2] = target: T1, Nip1 (UniProt Q12981)
T1 sequence (looked up): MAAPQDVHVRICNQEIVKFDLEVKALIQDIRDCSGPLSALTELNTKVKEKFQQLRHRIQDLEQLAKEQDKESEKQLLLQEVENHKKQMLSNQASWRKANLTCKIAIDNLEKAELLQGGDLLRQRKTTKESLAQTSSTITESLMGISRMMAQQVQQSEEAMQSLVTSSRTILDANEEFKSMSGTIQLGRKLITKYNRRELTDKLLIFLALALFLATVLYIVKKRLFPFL

[3] = target: Nip3 (UniProt Q12983)
[4] = target: T2, Nip2 (UniProt Q12982)
T2 sequence (looked up): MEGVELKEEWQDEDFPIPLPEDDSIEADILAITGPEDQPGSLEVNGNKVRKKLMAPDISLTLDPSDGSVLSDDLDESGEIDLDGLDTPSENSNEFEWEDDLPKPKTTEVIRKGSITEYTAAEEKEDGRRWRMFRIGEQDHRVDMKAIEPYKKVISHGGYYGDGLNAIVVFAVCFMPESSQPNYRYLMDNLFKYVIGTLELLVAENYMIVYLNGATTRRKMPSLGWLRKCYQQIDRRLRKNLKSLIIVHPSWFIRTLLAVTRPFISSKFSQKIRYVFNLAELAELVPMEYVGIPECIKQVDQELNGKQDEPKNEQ

Measured: binding

wild type human Bcl-2 (from UniProt P10415 1-239)
binds: all assays above
